According to publication PMC9064079:
No constants are given. Whether binding was seen depends on the method and setting. In cells and extracts the contact can be indirect. Some binding calls cover weakened binding; strength is not graded here.

Chains of the proteins cited; added tags and fusions are not shown.
UniProt P06733: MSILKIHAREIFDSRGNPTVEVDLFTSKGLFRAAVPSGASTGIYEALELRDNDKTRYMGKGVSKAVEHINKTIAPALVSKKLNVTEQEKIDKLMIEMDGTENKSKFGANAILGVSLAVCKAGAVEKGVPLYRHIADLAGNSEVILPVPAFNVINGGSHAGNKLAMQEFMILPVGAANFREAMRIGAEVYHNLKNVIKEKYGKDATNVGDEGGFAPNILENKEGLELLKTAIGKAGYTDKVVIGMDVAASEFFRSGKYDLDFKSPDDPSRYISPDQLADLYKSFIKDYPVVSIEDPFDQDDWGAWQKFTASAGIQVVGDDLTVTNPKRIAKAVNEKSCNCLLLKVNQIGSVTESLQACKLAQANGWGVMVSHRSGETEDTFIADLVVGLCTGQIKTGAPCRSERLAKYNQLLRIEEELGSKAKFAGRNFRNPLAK
UniProt P35579: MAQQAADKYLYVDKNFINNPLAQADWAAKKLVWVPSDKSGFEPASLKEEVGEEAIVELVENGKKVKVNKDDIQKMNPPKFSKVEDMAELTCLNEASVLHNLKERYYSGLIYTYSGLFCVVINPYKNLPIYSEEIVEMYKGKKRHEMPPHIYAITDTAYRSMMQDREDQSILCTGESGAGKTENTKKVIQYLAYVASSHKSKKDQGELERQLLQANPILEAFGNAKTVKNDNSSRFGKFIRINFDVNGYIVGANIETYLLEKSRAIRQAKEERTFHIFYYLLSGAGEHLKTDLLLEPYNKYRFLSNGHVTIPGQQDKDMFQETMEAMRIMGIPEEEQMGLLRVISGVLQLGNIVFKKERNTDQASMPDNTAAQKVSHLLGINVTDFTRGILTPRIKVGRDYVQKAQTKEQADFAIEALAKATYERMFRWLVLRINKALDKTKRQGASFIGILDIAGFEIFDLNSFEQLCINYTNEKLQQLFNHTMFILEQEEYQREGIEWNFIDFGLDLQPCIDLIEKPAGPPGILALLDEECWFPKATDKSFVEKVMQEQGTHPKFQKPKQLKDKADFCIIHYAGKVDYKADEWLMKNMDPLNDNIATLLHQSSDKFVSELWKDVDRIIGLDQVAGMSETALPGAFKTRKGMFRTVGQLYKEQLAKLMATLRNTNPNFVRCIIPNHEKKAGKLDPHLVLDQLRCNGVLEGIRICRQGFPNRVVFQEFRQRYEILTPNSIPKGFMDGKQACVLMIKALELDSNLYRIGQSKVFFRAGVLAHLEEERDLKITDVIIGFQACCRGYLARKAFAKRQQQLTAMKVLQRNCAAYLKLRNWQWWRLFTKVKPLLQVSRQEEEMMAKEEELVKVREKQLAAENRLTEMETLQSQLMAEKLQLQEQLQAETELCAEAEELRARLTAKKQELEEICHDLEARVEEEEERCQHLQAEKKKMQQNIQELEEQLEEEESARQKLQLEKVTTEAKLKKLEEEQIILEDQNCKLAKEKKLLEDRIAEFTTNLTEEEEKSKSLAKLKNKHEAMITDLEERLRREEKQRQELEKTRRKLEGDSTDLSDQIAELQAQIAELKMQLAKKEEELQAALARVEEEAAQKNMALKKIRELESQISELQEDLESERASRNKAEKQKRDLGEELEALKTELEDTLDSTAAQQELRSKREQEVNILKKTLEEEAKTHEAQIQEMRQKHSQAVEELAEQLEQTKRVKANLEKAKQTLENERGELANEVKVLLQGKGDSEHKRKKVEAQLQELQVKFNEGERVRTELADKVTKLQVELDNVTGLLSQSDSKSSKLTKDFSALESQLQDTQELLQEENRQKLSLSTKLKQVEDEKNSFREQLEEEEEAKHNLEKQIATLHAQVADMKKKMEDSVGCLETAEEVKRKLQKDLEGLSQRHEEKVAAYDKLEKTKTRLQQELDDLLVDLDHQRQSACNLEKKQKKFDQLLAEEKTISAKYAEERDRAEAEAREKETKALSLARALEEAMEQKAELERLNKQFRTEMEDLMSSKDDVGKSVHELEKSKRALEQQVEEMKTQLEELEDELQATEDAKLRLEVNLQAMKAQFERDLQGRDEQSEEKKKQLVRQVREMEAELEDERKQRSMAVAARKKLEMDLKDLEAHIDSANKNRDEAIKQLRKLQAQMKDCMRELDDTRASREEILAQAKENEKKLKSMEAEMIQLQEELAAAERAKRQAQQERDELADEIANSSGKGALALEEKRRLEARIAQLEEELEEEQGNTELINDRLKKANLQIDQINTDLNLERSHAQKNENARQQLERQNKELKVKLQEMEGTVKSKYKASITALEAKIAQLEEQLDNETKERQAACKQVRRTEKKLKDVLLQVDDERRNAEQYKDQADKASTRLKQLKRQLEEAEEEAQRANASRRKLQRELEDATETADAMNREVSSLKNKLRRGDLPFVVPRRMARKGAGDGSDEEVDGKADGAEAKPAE

B1: Aldolase A (enzyme, UniProt P04075 1-364)
chain: MPYQYPALTPEQKKELSDIAHRIVAPGKGILAADESTGSIAKRLQSIGTENTEENRRFYRQLLLTADDRVNPCIGGVILFHETLYQKADDGRPFPQVIKSKGGVVGIKVDKGVVPLAGTNGETTTQGLDGLSERCAQYKKDGADFAKWRCVLKIGEHTPSALAIMENANVLARYASICQQNGIVPIVEPEILPDGDHDLKRCQYVTEKVLAAVYKALSDHHIYLEGTLLKPNMVTPGHACTQKFSHEEIAMATVTALRRTVPPAVTGITFLSGGQSEEEASINLNAINKCPLLKPWALTFSYGRALQASALKAWGGKKENLKAAQEEYVKRALANSLACQGKYTPSGQAGAAASESLFVSNHAY

What was measured:
[1] = molecular target: Purified human Zn7-MT-3 (metallothionein 3) (human) (UniProt P25713); test: pull-down; Zn7-MT-3 cross-linked agarose beads incubated with HK-2 lysate; eluates read by SDS-PAGE and western blotting; only the target purified
V5-tagged MT-3 (human) = V5-tagged MT-3 (human) (UniProt P25713); test: co-IP; anti-V5 antibody with lysate of HK-2 cells expressing MT-3-V5 (1000 ug, pre-cleared), Protein A/G magnetic beads (legend: antibody cross-linked to agarose beads); washes 25 mM Tris-HCl, 150 mM NaCl, 0.05% Tween-20, pH 7.4; western blotting

Molecule	binding [1]	binding (V5-tagged MT-3 (human))
Enolase 1 (from UniProt P06733 1-434) (enzyme)	binds	binds
Myosin heavy chain-9, non-muscle (from UniProt P35579 1-1960)		binds
B1	binds	
